Data: patent EP4707298A2 (INSTITUTO BUTANTAN, dated 2026)
Results are given in words; binding and its absence hold for the method and conditions named. Some results given as binding are weak or reduced against the parent protein; the word gives no strength.

Protein sequences, listed by entry. Tags and fused reporters are not part of them. Residues count along the entry.
UniProt P09038, residues 143-288: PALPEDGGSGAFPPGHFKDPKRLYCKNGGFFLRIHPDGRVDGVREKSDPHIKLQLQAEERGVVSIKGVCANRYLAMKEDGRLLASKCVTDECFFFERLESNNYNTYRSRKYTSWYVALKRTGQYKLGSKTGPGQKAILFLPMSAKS

Target: rFGF2 antigen (recombinant fibroblast growth factor 2) (UniProt P09038)
Assay: SPR, antibody over immobilised rFGF2

| binding | Binder |
| --- | --- |
| binds | human anti-FGF2 antibody 62K98H (antibody, human IgG1, V domains shown, Human IgG1 format (AbVec vectors with human gamma1 HC and kappa LC constant regions)) VH: QITLKESGPTLVKPTQTLTLTCTFSGFSLSTSGVGVGWIRQPPGEALEWLAVIHWNEANYYSPYLRSRLTITKDTSKNQMVLTVTNMDPVDTATYYCARGANSDSSGRLDAFDIWGQGTMVTVSS VL: DVVMTQSPLSLPVTLGQPASISCRSSQSLIYSDGNTRLYWFHQRPGQSPRRLIYGVSNRDSGVPDRFSGSGSGTDFTLKISRVEAEDVGVYYCMQSTHWPHTFGQGTKLEIK |
| binds | human anti-FGF2 antibody 85L117H (antibody, human IgG1, V domains shown, Human IgG1 format (AbVec vectors with human gamma1 HC and lambda LC constant regions)) VH: QVQLVQSGAELKRPGSSVKVSCRASGDTFKNYAITWVRQAPGQGLEWVGGIDPLVGVPNYTHRFQGRVTITADEPTSTTYMEFRDLTSDDTAVYYCARGVRDQHWSYFDSWGQGTLVTVSS VL: QSVLTQPPSASGTPGQTVNISCSGATSNIGGGSVNWYQQLPGAAPRLLIHSDNERASGVPDRFSGSKSGTSASLAISGLQSEDEADYFCASWDDSLDGHVVFGGGTKVTVL |
